From PubChem BioAssay AID1347076 (National Center for Advancing Translational Sciences (NCATS), 2019)
The campaign covered roughly 400,000 compounds. About 13,000 (3.2%) were called active. This list was built around the results that the source calls inconclusive (neither active nor inactive); the mix of calls is not that of the screen. The call rests on the fitted dose curve; in most records, active means well fitted cell-killing curve with a large enough effect; inconclusive means small, poorly fitted or top-dose-only effect, or effect the other way; inactive means flat fitted curve, though single readings scatter. Potencies of inconclusive entries are doubtful fits and often do not repeat.

test: qHTS assay for MDR1-selective chemotherapeutics: Primary screen using the drug-selected MDR subline cells KB-V1; conditions: KB-V1 MDR cells viability, CellTiter-Glo, 72 h; activity change, negative = cytotoxicity: at 46.1 µM (top of the series); further: nearly all actives have a fitted effect of over 60% in size
Outline: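 Readout: CellTiter-Glo luminescence, 10 min after addition. Cells: KB-V1 MDR subline, 72 h at 37 degrees C with compound. Analysis: corrected, normalized data fitted to concentration-effect curves.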
On the % scale 0 is the no-effect control and ±100 the full control effect; potency means the concentration at half of the fitted maximal effect.

For `COc1ccccc1NC(=O)CN1CCN(CC(=O)Nc2ccc(F)cc2)CC1`, which “activity change, negative = cytotoxicity” value is on record?
Its value is inactive: -16.2%.

Which Potency does the source give for `O=[N+]([O-])c1ccc(N(c2ccccc2)c2ccccc2)cc1` here?
The Potency was inconclusive: 20.6 µM [cytotoxic, single point].

For `CCc1ccc(OCCCC(=O)NCc2ccccc2)cc1`, which Potency is on record?
The Potency was inconclusive: 29.1 µM [cytotoxic, single point].

For `Cc1cc(C(=O)COC(=O)c2ccccc2O)c(C)n1CC1CCCO1` (stereo not given), which Potency is on record?
The Potency was inconclusive: 16.4 µM [cytotoxic, single point].

Which Potency does the source give for `O=C(O)C1CCCCC1C(=O)Nc1ccc(-c2ccccc2)cc1` (stereo not given) here?
The Potency was inconclusive: 23.1 µM [rising, single point].

Which Potency does the source give for `O=C(CSC1=NCCS1)Nc1nc2ccccc2s1` here?
Its Potency is inconclusive: 29.1 µM [cytotoxic, single point].

Which “activity change, negative = cytotoxicity” value does the source give for `CCN(CCCNC(=O)C1CCN(S(=O)(=O)N2CCOCC2)CC1)c1cccc(C)c1` here?
Its value is inactive: -10.6%.

For `COc1cc(OC)c(OC)cc1CN(C)CC1CCCN(CCc2ccccc2F)C1` (stereo not given), which Potency is on record?
The Potency was inconclusive: 4.61 µM [cytotoxic, partial curve, poor fit].

With `COc1ccc(CC(=O)O/N=C(\N)c2ccncc2)cc1OC` as the compound, how does the “activity change, negative = cytotoxicity” value read?
The value was inactive: 0.32%.

With `CN1OC[C@@H]2CN(Cc3ccccc3)[C@H](c3cccc(-c4ccc(C#N)cc4)c3)C[C@@H]21` as the compound, how does the “activity change, negative = cytotoxicity” value read?
The value was inactive: -12.1%.

For `O=C(N/N=C/C(Br)=C\c1ccccc1)c1ccc2nc[nH]c2c1`, which “activity change, negative = cytotoxicity” value is on record?
Its value is inactive: -25.5%.

Which “activity change, negative = cytotoxicity” value does the source give for `S=c1[nH]c(-c2ccc(Cl)cc2)cs1` here?
The value was inactive: -7.68%.

For `Cc1ccc(NC(=O)CSc2nccn2C)cc1S(=O)(=O)N1CCOCC1`, which Potency is on record?
Its Potency is inconclusive: 14.6 µM [cytotoxic, partial curve, poor fit].

With `CC(=O)N(c1nc(CCl)cs1)c1ccc(C)cc1C` as the compound, how does the Potency read?
The Potency was inconclusive: 8.2 µM [rising, partial curve, poor fit].

Which Potency does the source give for `Cc1nc2cc(S(=O)(=O)N(C)C)ccc2n1-c1ccccc1` here?
The Potency was inconclusive: 25.9 µM [cytotoxic, single point].

For `CCOC(=O)N1CCN(CCC(=O)Nc2ccc(Br)c(C)c2)CC1`, which Potency is on record?
The Potency was active: 18.4 µM.

With `CN(C)c1ccc(/C=C/c2ccnc3ccc(O)cc23)cc1` as the compound, how does the “activity change, negative = cytotoxicity” value read?
Its value is inactive: 1%.

For `CCC(C)C(NC(=O)C1CCC(C)CC1)C(=O)Nc1cc(OC)ccc1OC` (stereo not given), which Potency is on record?
Its Potency is active: 2.59 µM.

Which Potency does the source give for `Cc1nn(C)c(Cl)c1CN1CCCC(C(=O)Nc2cccc(-n3cccn3)c2)C1` (stereo not given) here?
The Potency was inconclusive: 4.61 µM [cytotoxic, partial curve, poor fit].

For `O=C(COc1ccc2ccc(=O)oc2c1)NC1CCCCC1`, which Potency is on record?
The Potency was inconclusive: 20.6 µM [cytotoxic, single point].

With `CC(=O)c1ccc(Nc2nc(C(N)c3ccccc3)cs2)cc1` (stereo not given) as the compound, how does the “activity change, negative = cytotoxicity” value read?
Its value is inactive: -0.67%.

Which Potency does the source give for `CCOC(=O)N1CCN(c2ncc3c(n2)CC(c2ccc(OC)c(OC)c2)CC3=O)CC1` (stereo not given) here?
The Potency was active: 4.11 µM.

Which Potency does the source give for `Cc1cccc(C)c1NC(=O)CSCC(=O)O` here?
Its Potency is inconclusive: 9.2 µM [rising, partial curve, poor fit].

With `Cc1cccc(Sc2nc(-c3ccccc3)ccc2C#N)c1` as the compound, how does the Potency read?
Its Potency is inconclusive: 16.4 µM [cytotoxic, partial curve].

For `CCOC(=O)c1cnc(SCc2nc(N)nc(Nc3ccc(C)cc3)n2)nc1N`, which Potency is on record?
The Potency was inconclusive: 20.6 µM [cytotoxic, single point].

With `CN(C)c1ccc(NC(=O)c2cn(-c3ccccc3)nc2-c2cccs2)cc1` as the compound, how does the Potency read?
The Potency was inconclusive: 9.2 µM [cytotoxic, partial curve].

With `CCN(CC)S(=O)(=O)c1cc(OC)c(C)cc1C` as the compound, how does the Potency read?
The Potency was inconclusive: 29.1 µM [rising, single point].

Which Potency does the source give for `O=C(N/N=C/c1ccccc1C(F)(F)F)c1ccc2nc[nH]c2c1` here?
The Potency was inconclusive: 8.2 µM [rising, partial curve].

With `CCC(CC)C(C(=O)NCc1ccccc1)N(C)Cc1ccc(Cl)c(Cl)c1` (stereo not given) as the compound, how does the Potency read?
Its Potency is inconclusive: 20.6 µM [cytotoxic, single point].

For `CCOC(=O)c1c(C)[nH]c(C(=O)OCC(=O)N2c3ccccc3CC2C)c1C` (stereo not given), which Potency is on record?
The Potency was inconclusive: 16.4 µM [cytotoxic, single point].

With `NC(=O)C(c1ccc(Br)cc1)c1ccc(C(=O)c2ccccc2)cc1` (stereo not given) as the compound, how does the Potency read?
The Potency was inconclusive: 18.4 µM [cytotoxic, single point].

For `COc1ccc(S(=O)(=O)N2CCCCC2)cc1NC(=O)Cc1c[nH]c2ccccc12`, which Potency is on record?
The Potency was inconclusive: 8.2 µM [cytotoxic, partial curve].

With `CC1CCN(c2oc(-c3ccccc3Cl)nc2C#N)CC1` as the compound, how does the Potency read?
The Potency was inconclusive: 18.4 µM [cytotoxic, single point].

With `CCOc1ccccc1C(=O)Nc1ccc(S(=O)(=O)Nc2nccc(C)n2)cc1` as the compound, how does the Potency read?
Its Potency is inconclusive: 29.1 µM [rising, single point].

With `O=C(CO)c1c[nH]c2ccccc12` as the compound, how does the “activity change, negative = cytotoxicity” value read?
The value was inactive: 29%.

Which Potency does the source give for `Cc1ccc(S(=O)(=O)Nc2ccc(C(=O)N3CCCC3)cc2)c(C)c1NS(C)(=O)=O` here?
Its Potency is inconclusive: 29.1 µM [rising, single point].

With `COc1ccc(OC(=O)COc2ccc(Cl)cc2)cc1` as the compound, how does the “activity change, negative = cytotoxicity” value read?
The value was inactive: -1.37%.

For `CSc1nn(CC(=O)Nc2ccc(C)cc2C)c(N)c1S(=O)(=O)c1ccc(Cl)cc1`, which “activity change, negative = cytotoxicity” value is on record?
Its value is inactive: 7.14%.

With `CCOC(=O)CN(C(=O)COC(=O)C1(c2ccccc2)CC1)c1ccc(F)cc1` as the compound, how does the Potency read?
The Potency was inconclusive: 9.2 µM [cytotoxic, partial curve].

Which Potency does the source give for `Cc1ccccc1C(=O)NNC(=O)c1cc(N)cc([N+](=O)[O-])c1` here?
The Potency was inconclusive: 11.6 µM [rising, partial curve, poor fit].

With `CCOC(=O)c1ccc2nc(Nc3nc4ccc(F)cc4s3)sc2c1` as the compound, how does the Potency read?
Its Potency is inconclusive: 0.731 µM [rising, single point].

With `Cc1noc(C)c1COc1ccccc1C(=O)N1CCN(S(=O)(=O)c2cccc([N+](=O)[O-])c2)CC1` as the compound, how does the Potency read?
The Potency was inconclusive: 10.3 µM [cytotoxic, partial curve].

With `C=CCn1c(SCCOc2ccc(OC)cc2)nnc1C(C)NC(=O)Cc1ccc(OC)cc1` (stereo not given) as the compound, how does the Potency read?
Its Potency is inconclusive: 6.51 µM [cytotoxic, partial curve].

Which Potency does the source give for `c1ccc(-c2nnc(CSc3nnc(-c4ccncc4)n3Cc3ccco3)o2)cc1` here?
Its Potency is inconclusive: 29.1 µM [cytotoxic, single point].

Which “activity change, negative = cytotoxicity” value does the source give for `O=c1c2c(nc3cc(-c4ccc(F)cc4)[nH]n13)CCCC2` here?
The value was inactive: -2.21%.
